Patent publication US20050142568A1
These are yes or no findings as the source states them, for the method shown. In cells and extracts the contact can be indirect. Some results given as binding are weak or reduced against the parent protein; the word gives no strength. For part of these data: Sequences can lack the tags named with a protein. Blank lines part the entries; values can stand above or below the binder they belong to.

Protein sequences, listed by entry. Tags and fused reporters are not part of them. Residues count along the entry.
UniProt Q17778, residues 22-375: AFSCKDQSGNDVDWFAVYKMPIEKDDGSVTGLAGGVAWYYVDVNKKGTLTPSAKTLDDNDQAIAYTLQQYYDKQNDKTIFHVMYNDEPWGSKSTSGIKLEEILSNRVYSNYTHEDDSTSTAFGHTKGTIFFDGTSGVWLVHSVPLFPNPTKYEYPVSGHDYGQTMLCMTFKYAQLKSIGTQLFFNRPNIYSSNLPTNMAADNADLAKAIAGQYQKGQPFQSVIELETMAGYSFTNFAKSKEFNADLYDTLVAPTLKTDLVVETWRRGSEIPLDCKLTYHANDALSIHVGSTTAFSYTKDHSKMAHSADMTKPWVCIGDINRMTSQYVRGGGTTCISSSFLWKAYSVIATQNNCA

Tests used:
[1] = molecular target: T1, full-length ^35S-methionine labeled CPS-6 (C. elegans) (UniProt Q95NM6); assay: GST pull-down (FIG. 7A)
T1 sequence (35S-methionine labelled, looked up): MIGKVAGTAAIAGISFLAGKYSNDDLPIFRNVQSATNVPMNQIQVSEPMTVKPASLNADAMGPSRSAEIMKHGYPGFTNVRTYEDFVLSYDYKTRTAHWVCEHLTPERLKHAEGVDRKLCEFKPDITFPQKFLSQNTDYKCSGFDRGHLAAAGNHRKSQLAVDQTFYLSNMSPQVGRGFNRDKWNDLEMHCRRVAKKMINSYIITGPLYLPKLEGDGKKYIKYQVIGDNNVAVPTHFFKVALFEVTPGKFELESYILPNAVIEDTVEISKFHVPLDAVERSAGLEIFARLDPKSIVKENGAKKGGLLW

[2] = molecular target: T2, CPS-6(21-308) (C. elegans) (UniProt Q95NM6); assay: GST pull-down (FIG. 7A)
T2 sequence (35S-methionine labelled, looked up): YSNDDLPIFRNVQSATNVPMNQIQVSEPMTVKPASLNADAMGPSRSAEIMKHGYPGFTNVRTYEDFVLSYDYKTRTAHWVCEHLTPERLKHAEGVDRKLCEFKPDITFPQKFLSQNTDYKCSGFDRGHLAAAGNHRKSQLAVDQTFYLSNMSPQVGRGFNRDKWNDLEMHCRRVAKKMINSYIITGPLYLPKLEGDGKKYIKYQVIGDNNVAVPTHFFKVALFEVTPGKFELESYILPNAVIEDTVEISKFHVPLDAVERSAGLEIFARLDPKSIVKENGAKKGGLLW

[3] = molecular target: T1, full-length ^35S-methionine labeled CPS-6 (C. elegans); assay: GST pull-down
[4] = molecular target: T1, full-length ^35S-methionine labeled CPS-6 (C. elegans); assay: summary of Example 8 (GST pull-down)
[5] = molecular target: T1, full-length ^35S-methionine labeled CPS-6 (C. elegans); assay: in vitro GST pull-down
[6] = molecular target: T1, full-length ^35S-methionine labeled CPS-6 (C. elegans); assay: GST pull-down, 5 µg GST fusion, 35S-Met labelled proteins (FIG. 7A)
[7] = molecular target: T3, GST-CRN-5 (C. elegans) (UniProt G5EG59); assay: GST pull-down, 35S-Met protein vs GST fusion; + = consistently above background
T3 sequence: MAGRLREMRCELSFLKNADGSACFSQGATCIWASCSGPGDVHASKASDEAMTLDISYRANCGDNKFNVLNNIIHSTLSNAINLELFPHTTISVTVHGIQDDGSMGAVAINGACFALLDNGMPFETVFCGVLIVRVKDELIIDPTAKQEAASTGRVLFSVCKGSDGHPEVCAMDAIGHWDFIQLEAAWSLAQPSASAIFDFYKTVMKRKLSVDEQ

[8] = molecular target: T4, GST-CRN-4 (C. elegans) (UniProt Q10905); assay: as above
T4 sequence (looked up): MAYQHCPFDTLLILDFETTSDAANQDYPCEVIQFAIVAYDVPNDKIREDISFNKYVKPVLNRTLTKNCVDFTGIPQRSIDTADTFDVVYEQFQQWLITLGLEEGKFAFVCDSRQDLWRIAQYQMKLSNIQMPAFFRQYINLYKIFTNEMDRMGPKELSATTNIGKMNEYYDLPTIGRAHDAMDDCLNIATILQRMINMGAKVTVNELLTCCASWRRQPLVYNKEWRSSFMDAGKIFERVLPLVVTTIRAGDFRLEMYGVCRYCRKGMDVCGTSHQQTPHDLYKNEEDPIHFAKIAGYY

[9] = molecular target: GST-CYP-13 (C. elegans); assay: as above
[10] = molecular target: T5, GST-CRN-1 (C. elegans) (UniProt Q9N3T2); assay: GST pull-down, 35S-Met protein vs GST fusion; ++ = strong interaction
T5 sequence (looked up): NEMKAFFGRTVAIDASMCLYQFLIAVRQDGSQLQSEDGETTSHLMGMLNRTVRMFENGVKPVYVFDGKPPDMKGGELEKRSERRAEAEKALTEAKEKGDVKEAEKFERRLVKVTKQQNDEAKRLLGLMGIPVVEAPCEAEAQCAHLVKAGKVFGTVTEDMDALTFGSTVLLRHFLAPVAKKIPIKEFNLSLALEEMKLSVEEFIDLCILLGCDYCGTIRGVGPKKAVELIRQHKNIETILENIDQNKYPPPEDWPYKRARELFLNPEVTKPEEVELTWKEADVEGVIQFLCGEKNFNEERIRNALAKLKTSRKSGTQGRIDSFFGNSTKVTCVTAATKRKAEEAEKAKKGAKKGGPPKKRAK

[11] = molecular target: T5, GST-CRN-1 (C. elegans); assay: GST pull-down, in vitro
[12] = molecular target: T5, GST-CRN-1 (C. elegans); assay: GST pull-down, 35S-Met protein vs GST fusion; + = consistently above background
[13] = molecular target: GST-NUC-1 (C. elegans) (UniProt Q17778); assay: as above
[14] = molecular target: T6, GST-CPS-6 (C. elegans) (UniProt Q95NM6); assay: GST pull-down, 35S-Met protein vs GST fusion; ++ = strong interaction
T6 sequence (looked up): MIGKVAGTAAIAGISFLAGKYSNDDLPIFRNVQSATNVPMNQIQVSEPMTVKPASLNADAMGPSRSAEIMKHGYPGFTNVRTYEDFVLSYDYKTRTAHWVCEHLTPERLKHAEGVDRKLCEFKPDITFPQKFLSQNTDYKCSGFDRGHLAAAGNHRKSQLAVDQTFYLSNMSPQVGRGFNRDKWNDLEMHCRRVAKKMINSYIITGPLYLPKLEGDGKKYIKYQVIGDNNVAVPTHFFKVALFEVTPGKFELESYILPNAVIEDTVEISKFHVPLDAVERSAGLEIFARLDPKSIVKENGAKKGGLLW

[15] = molecular target: T4, GST-CRN-4 (C. elegans); assay: as above
[16] = molecular target: T6, GST-CPS-6 (C. elegans); assay: GST pull-down, in vitro

binding [1]: binds
B1: CRN-1(DY-AA) (enzyme, C. elegans, UniProt Q9N3T2 1-382, looked up)
chain: MGIKGLSQVIADNAPSAIKVNEMKAFFGRTVAIDASMCLYQFLIAVRQDGSQLQSEDGETTSHLMGMLNRTVRMFENGVKPVYVFDGKPPDMKGGELEKRSERRAEAEKALTEAKEKGDVKEAEKFERRLVKVTKQQNDEAKRLLGLMGIPVVEAPCEAEAQCAHLVKAGKVFGTVTEDMDALTFGSTVLLRHFLAPVAKKIPIKEFNLSLALEEMKLSVEEFIDLCILLGCAACGTIRGVGPKKAVELIRQHKNIETILENIDQNKYPPPEDWPYKRARELFLNPEVTKPEEVELTWKEADVEGVIQFLCGEKNFNEERIRNALAKLKTSRKSGTQGRIDSFFGNSTKVTCVTAATKRKAEEAEKAKKGAKKGGPPKKRAK

binding [1]: binds
binding [2]: binds
binding [3]: binds
binding [4]: binds
binding [5]: binds
binding [6]: binds
B2: CRN-1 glutathione S-transferase fusion protein GST-CRN-1(21-382) (protein, C. elegans, UniProt Q9N3T2 21-382, looked up, not shown: a dimerising Fc or GST)
chain: NEMKAFFGRTVAIDASMCLYQFLIAVRQDGSQLQSEDGETTSHLMGMLNRTVRMFENGVKPVYVFDGKPPDMKGGELEKRSERRAEAEKALTEAKEKGDVKEAEKFERRLVKVTKQQNDEAKRLLGLMGIPVVEAPCEAEAQCAHLVKAGKVFGTVTEDMDALTFGSTVLLRHFLAPVAKKIPIKEFNLSLALEEMKLSVEEFIDLCILLGCDYCGTIRGVGPKKAVELIRQHKNIETILENIDQNKYPPPEDWPYKRARELFLNPEVTKPEEVELTWKEADVEGVIQFLCGEKNFNEERIRNALAKLKTSRKSGTQGRIDSFFGNSTKVTCVTAATKRKAEEAEKAKKGAKKGGPPKKRAK

binding [7]: binds
binding [8]: binds
binding [9]: binds
binding [10]: binds
binding [11]: binds
B3: full-length ^35S-methionine labeled CPS-6 (enzyme, C. elegans, UniProt Q95NM6 1-308, looked up)
chain: MIGKVAGTAAIAGISFLAGKYSNDDLPIFRNVQSATNVPMNQIQVSEPMTVKPASLNADAMGPSRSAEIMKHGYPGFTNVRTYEDFVLSYDYKTRTAHWVCEHLTPERLKHAEGVDRKLCEFKPDITFPQKFLSQNTDYKCSGFDRGHLAAAGNHRKSQLAVDQTFYLSNMSPQVGRGFNRDKWNDLEMHCRRVAKKMINSYIITGPLYLPKLEGDGKKYIKYQVIGDNNVAVPTHFFKVALFEVTPGKFELESYILPNAVIEDTVEISKFHVPLDAVERSAGLEIFARLDPKSIVKENGAKKGGLLW
modifications: 35S-methionine labelled

binding [7]: binds
binding [12]: binds
binding [13]: binds
binding [14]: binds
binding [15]: binds
binding [16]: binds
B4: ^35S-Methionine labeled CRN-4 (enzyme, C. elegans, UniProt Q10905 1-298, looked up)
chain: MAYQHCPFDTLLILDFETTSDAANQDYPCEVIQFAIVAYDVPNDKIREDISFNKYVKPVLNRTLTKNCVDFTGIPQRSIDTADTFDVVYEQFQQWLITLGLEEGKFAFVCDSRQDLWRIAQYQMKLSNIQMPAFFRQYINLYKIFTNEMDRMGPKELSATTNIGKMNEYYDLPTIGRAHDAMDDCLNIATILQRMINMGAKVTVNELLTCCASWRRQPLVYNKEWRSSFMDAGKIFERVLPLVVTTIRAGDFRLEMYGVCRYCRKGMDVCGTSHQQTPHDLYKNEEDPIHFAKIAGYY
modifications: 35S-methionine labelled
